Reference: article doi:10.1101/197558
No constants are given. Whether binding was seen depends on the method and setting.

Target: KATNAL1 (E308Q) AAA ATPase domain, nucleotide-free, as found in the crystal (human) (UniProt Q9BW62)
Test: crystal structure

B1: KATNAL1 (E308Q) AAA ATPase domain, nucleotide-free, as found in the crystal (domain or fragment, UniProt Q9BW62 184-490)
chain: AGYDKDLVEALERDIVSRNPSIHWDDIADLEEAKKLLREAVVLPMWMPDFFKGIRRPWKGVLMVGPPGTGKTMLAKAVATECGTTFFNVSSSTLTSKYRGESEKLVRLLFEMARFYAPTTIFIDQIDSICSRRGTSDEHEASRRVKSELLIQMDGVGGALENDDPSKMVMVLAATNFPWDIDEALRRRLEKRIYIPLPTAKGRAELLKINLREVELDPDIQLEDIAEKIEGYSGADITNVCRDASLMAMRRRINGLSPEEIRALSKEELQMPVTKGDFELALKKIAKSVSAADLEKYEKWMVEFGSA
How did the binding turn out when B1 was run?
The binding was “no binding”.
